From PubChem BioAssay AID493014 (National Center for Advancing Translational Sciences (NCATS), 2011)
This is one part of the list. These are further read-outs of the screen, such as a control signal, another cell line or another target. No call is given for them. Compounds called inactive in the main read-out are mostly missing here. Words in brackets tell the shape of the fitted curve; partial curves, single points and poor fits give uncertain potencies.

Test: qHTS Assay to Find Inhibitors of Chronic Active B-Cell Receptor Signaling
Settings: ABC-DLBCL IkBa-CBG/CBR reporter, luminescence ratio (green luciferase fused to IkBa over red control in TMD8 lymphoma cells), 4 h
Method in brief: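 TMD8 human ABC-DLBCL cells with doxycycline-inducible IκBα–green luciferase fusion and unfused red luciferase, in 0.5% FBS medium; compounds up to 46 uM, 4 h at 37C. Green/red luminescence ratio, filter-overlap corrected, fitted to concentration-response curves.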

[1] = measured here: CBR red luminescence, cell number
[2] = measured here: IkBa-CBG green luminescence

SMILES	AC50 [1]	AC50 [2]
O=C(Nc1ccccc1N1CCN(C(=O)c2ccccc2)CC1)c1cccc(Cl)c1	0.708 µM [rising, partial curve, poor fit]	–
Cc1c(C)n(C)c2ccc([N+](=O)[O-])cc12	31.6 µM [rising, single point]	–
Clc1ccc(-c2nc(C3CCCCC3)no2)cc1	3.98 µM [rising, partial curve, poor fit]	–
Cn1cccc1Cc1nnc(SCC(=O)Nc2ccc3c(c2)OCCO3)n1-c1ccc(F)cc1	23.1 µM [falling, single point]	–
O=C(CSCc1ccc(F)cc1)N1CCN(c2ccccc2F)CC1	17.8 µM [rising, single point]	–
O=C(/C=C1\SC(=O)N(CC(=O)Nc2ccc(F)cc2)C1=O)Nc1ccc(Cl)cc1	1.46 µM [falling, partial curve]	–
COc1ccc(OC)c(C=NNC(=O)c2ccc(NS(=O)(=O)c3cccs3)cc2)c1	9.2 µM [falling, partial curve, poor fit]	–
CCOc1ccccc1N1CCN(Cc2cccc(OC)c2O)CC1	1.64 µM [rising, partial curve, poor fit]	–
C=CCN=C1SCC(=O)N1S(=O)(=O)c1ccc(C)cc1	2.91 µM [falling, single point]	5.17 µM [rising, partial curve, poor fit]
CN(C)S(=O)(=O)c1cccc(-c2nnc(SCC(=O)NCCCCCC(=O)O)n2-c2ccc(F)cc2)c1	2.82 µM [rising, partial curve, poor fit]	–
CCC1(c2ccc(Cl)cc2)NC(=O)N(CC(=O)NCc2ccc(F)cc2)C1=O (stereo unspecified)	35.5 µM [falling, partial curve, poor fit]	–
Cc1ccc(-n2c(-c3cnccn3)n[nH]c2=S)cc1	3.55 µM [rising, partial curve, poor fit]	–
Cc1cc(OCCCCOc2ccc(C#N)cc2)ccc1[N+](=O)[O-]	2.51 µM [rising, partial curve, poor fit]	–
Cc1cccc(N2CCN(C(=S)NCCc3ccccc3)CC2)c1C	29.1 µM [rising, single point]	–
C=CCn1c2ccccc2c(=O)c2cc(C#Cc3ccccn3)ccc21	23.1 µM [falling, single point]	–
COc1cccc(NC(=O)CSc2nc3ccccc3nc2N2CCCC2)c1	0.708 µM [falling, full curve, poor fit]	–
COC(=O)C1=C(C)Nc2[nH]c(=S)[nH]c(=O)c2C1c1ccc(O)cc1 (stereo unspecified)	35.5 µM [rising, single point]	–
CC(C)c1ccc(/C=N/n2c(-c3ccccc3)n[nH]c2=S)cc1	22.4 µM [rising, single point]	–
COc1ccc2nc3c(c(-c4ccccc4)c2c1)CCC3	23.1 µM [rising, partial curve, poor fit]	–
CSc1ccc(CN(C)C(=O)c2cccc(S(=O)(=O)NCc3ccccc3)c2)cc1	3.16 µM [falling, single point]	–
O=C(COc1ccc2c3c(c(=O)oc2c1)CCC3)NCCCN1CCCC1=O	11.2 µM [rising, single point]	–

Exported in markdown: part of the list above.

| SMILES | AC50 [1] | AC50 [2] |
| --- | --- | --- |
| O=C(Nc1ccccc1N1CCN(C(=O)c2ccccc2)CC1)c1cccc(Cl)c1 | 0.708 µM [rising, partial curve, poor fit] | – |
| CCC1(c2ccc(Cl)cc2)NC(=O)N(CC(=O)NCc2ccc(F)cc2)C1=O (stereo unspecified) | 35.5 µM [falling, partial curve, poor fit] | – |
| Cc1ccc(-n2c(-c3cnccn3)n[nH]c2=S)cc1 | 3.55 µM [rising, partial curve, poor fit] | – |

Following part:

SMILES	AC50 [1]	AC50 [2]
COc1cccc(-c2nnc(SCc3ccc(C#N)cc3)n2Cc2ccco2)c1	22.4 µM [falling, partial curve, poor fit]	–
COc1cc(/C=C2\C(=O)N(CCC#N)N=C2C)ccc1OCC(=O)Nc1ccccc1	14.6 µM [falling, partial curve]	–
CC1CCCN(CCCNC(=O)c2cc(Sc3ccc(F)cc3)nc3ccccc23)C1 (stereo unspecified)	15.8 µM [falling, single point]	–
COc1ccc(C(=O)NCCc2ccc(S(N)(=O)=O)cc2)cc1OC	23.1 µM [rising, single point]	–
O=C1c2ccccc2C(=O)N1CCc1csc(-c2ccccc2)n1	2.06 µM [rising, full curve]	–
CCN(CC)C(=O)c1ccc2c(=O)n(CCOC)c(=S)[nH]c2c1	0.058 µM [falling, full curve, poor fit]	–
Cc1cc(NC(=O)/C=C/c2ccc(Br)cc2)no1	2.31 µM [rising, partial curve]	–
Cc1cc(C)cc(C(=O)Nc2cccc(NC(=O)c3ccco3)c2)c1	2.24 µM [falling, full curve, poor fit]	–
CSCCC(NC(=O)c1occc1C)C(=O)O (stereo unspecified)	3.26 µM [rising, partial curve, poor fit]	–
CCN(CC)c1ncnc2c1cnn2-c1cc(Cl)ccc1C	0.794 µM [rising, full curve, poor fit]	–
Cc1c(C(=O)N/N=C/c2ccc(O)c(Br)c2)sc(N)c1C#N	23.1 µM [falling, partial curve, poor fit]	–
COc1ccc(-c2csc(Nc3ncccc3C)n2)cc1OC	1.3 µM [rising, full curve, poor fit]	–
CCc1ccc(N(C(=O)Cn2nnc(-c3ccccc3)n2)C(C(=O)NC2CCCCC2)c2ccccn2)cc1 (stereo unspecified)	32.6 µM [rising, single point]	–
C=CCN(CC=C)C(=O)Nc1ccc2nc(C)sc2c1	0.164 µM [rising, full curve, poor fit]	–
O=C1c2ccccc2C(=O)C1c1ccc(Br)cc1	11.2 µM [falling, single point]	–
CCCCCCCC(=O)NNC(=O)CCC(=O)O	15.8 µM [rising, partial curve, poor fit]	–
CC1=NOC(=O)/C1=C/c1ccc(-c2ccc(Cl)cc2)o1	6.51 µM [rising, partial curve, poor fit]	–
Cc1cccc2sc(NC(=O)C3CCN(C(=O)c4ccco4)CC3)nc12	0.891 µM [falling, full curve]	–
CN(C)c1ccc(CN(C)C2CCCCC2)cc1	3.26 µM [rising, partial curve, poor fit]	–
CC(C)CCCC(C)NS(=O)(=O)Cc1ccccc1 (stereo unspecified)	0.92 µM [rising, full curve, poor fit]	–
Clc1ccc(-c2nc3ccccn3c2CN2CCCCC2)cc1	25.1 µM [rising, single point]	–

SMILES	AC50 [1]	AC50 [2]
Cc1ccc(N2CCN(CCc3nc4cc(NS(C)(=O)=O)ccc4n3C)CC2)cc1	0.00411 µM [falling, full curve, poor fit]	–
COc1ccc(CCNC(=O)CCSc2nc(-c3ccco3)cc(C(F)(F)F)n2)cc1OC	14.6 µM [falling, partial curve, poor fit]	–
N#Cc1ccccc1N=Cc1ccc(Br)cc1	2.31 µM [rising, full curve, poor fit]	–
CCOC(=O)CSc1ncc(-c2ccc([N+](=O)[O-])cc2)[nH]1	10.3 µM [rising, partial curve, poor fit]	–
CC(=O)c1c(C)[nH]c(C(=O)Nc2ccc3c(c2)OCCO3)c1C	7.08 µM [falling, partial curve, poor fit]	–
CC(C)n1nc(C(=O)Nc2nc3ccccc3[nH]2)c2ccccc2c1=O	10 µM [falling, partial curve]	–
CCN(Cc1cc2ccccc2[nH]c1=O)S(=O)(=O)c1ccccc1	1.3 µM [falling, partial curve]	–
COc1ccc(C(C)(C)C)cc1S(=O)(=O)N1CCC(C(N)=O)CC1	8.2 µM [rising, partial curve, poor fit]	–
CCOC(=O)c1nnc(-c2ccc(C)cc2)nc1Sc1ccccc1Cl	29.1 µM [rising, single point]	–
O=C1c2ccccc2NC(c2cccs2)N1O (stereo unspecified)	18.4 µM [falling, partial curve, poor fit]	–
N#C/C(=C(/O)CSc1ncn[nH]1)c1nc2ccccc2[nH]1	7.94 µM [falling, partial curve]	–
C=CCNc1nc2c(c(=O)n(C)c(=O)n2C)n1Cc1ccc(F)cc1	13 µM [falling, partial curve, poor fit]	–
O=C(CN1C(=O)NC(c2ccccc2)(c2ccccc2)C1=O)Nc1ccc(N2CCOCC2)cc1	29.1 µM [rising, single point]	–
COc1ccccc1CNC(=O)C1CCCN(S(=O)(=O)c2cccc3nonc23)C1 (stereo unspecified)	31.6 µM [falling, single point]	–
CCOc1cc(/C=N/N=C(/N)c2nonc2N)cc(Br)c1OCc1ccc(Cl)cc1	13 µM [rising, partial curve]	–
C=CCNc1nc(C)c(CNc2c(C)cc(C)cc2C)nc1C#N	35.5 µM [rising, single point]	–
COc1ccc(-c2c(-c3ccc(OCC(=O)NN)cc3O)n[nH]c2C)cc1OC	11.2 µM [falling, partial curve]	11.2 µM [rising, partial curve, poor fit]
CCN(CC)C(=O)c1ccc(Nc2nnc(-c3ccc(O)cc3)c3ccccc23)cc1	7.08 µM [falling, full curve, poor fit]	–
O=C1c2ccc(-c3ccc(F)cc3OCc3ccccc3)cc2S(=O)(=O)c2cccc(C(=O)N3CCCC3)c21	1.3 µM [rising, full curve]	–
N/C(=N\OC(=O)COc1ccc2ccccc2c1)c1ccccn1	35.5 µM [falling, single point]	–
Cc1ccccc1Nc1cc(C(=O)NCc2ccco2)c2ccccc2n1	4.61 µM [falling, partial curve, poor fit]	2.31 µM [rising, full curve, poor fit]
